Results from PubChem BioAssay AID2417 (National Center for Advancing Translational Sciences (NCATS), 2010).
About 4,300 (3.1%) of roughly 140,000 compounds were called active. The shares of active, inactive and inconclusive entries below differ from those in the screen.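 Rule for the calls: active = readout at or below -70, meaning at least 70% loss of cells showing the perinucleolar compartment, a nuclear body marking cancer cells; inconclusive = readout between -30 and a set limit; inactive = the rest.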

assay: High Content Assay for Compounds that inhibit the Assembly of the Perinucleolar Compartment; conditions: PC3M PTB-GFP, PNC prevalence imaging, 16 h; at 10 µM; hits give low values;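 note: plate controls were DMSO wells for no effect and camptothecin positive control wells for full effect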
Summary of the method: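 PC3M cells stably expressing PTB-GFP, 750–1000 cells/well, treated 16 h at 37 °C with compound (23 nl of library stock), in duplicate. After paraformaldehyde fixation and Hoechst stain, imaged at 20x; PNC prevalence scored by image analysis.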

SMILES | activity change (PNC), negative = inhibition
COc1ccc(NC(=O)CCCn2c(=O)c3sccc3n(Cc3cccc(C)c3)c2=O)cc1 | inactive: -16.3%
CCN(CC)S(=O)(=O)c1cccc(NC(=O)COC(=O)/C=C/c2ccco2)c1 | inactive: 52.4%
NC(=O)C1CCCN(C(=S)Nc2cccc3ccccc23)C1 (configuration not stated) | inconclusive: -52.3%
CCCN1C(=O)/C(=C/c2ccc(C)s2)NC1=S | inconclusive: -53.8%
CC(NC(=O)c1ccco1)C(c1cccs1)N1CCOCC1 (configuration not stated) | inactive: -17.3%
CC(=O)Nc1sc(C)c(C)c1C(=O)OC1CCOC1=O (configuration not stated) | inconclusive: -38.4%
O=C(Nc1cccnc1)c1cc(-c2ccccc2)on1 | inconclusive: -35.7%
O=C(NCc1ccccc1)[C@@H]1C[C@H]1[C@@H](NP(=O)(c1ccccc1)c1ccccc1)c1ccccc1 | inactive: 21.7%
c1ccc2c(CNn3cnnc3)cccc2c1 | inconclusive: -50.5%
CC(=O)Nc1nc(C)c(Cc2ccccc2)c(=O)[nH]1 | inconclusive: -61.5%
O=[N+]([O-])c1ccc(N=Nc2ccc(O)cc2O)cc1 | inactive: 4.16%
CCOc1ccc(C2/C(=C(/O)c3ccc(F)cc3)C(=O)C(=O)N2CCCN(C)C)cc1 (configuration not stated) | inactive: -4.17%
CCCCCCCC(=O)N/N=C/c1ccc(Br)cc1 | inconclusive: -40.4%
COCc1nn2c(N)c(C#N)cnc2c1-c1ccccc1 | inconclusive: -49.6%
COc1ccccc1N/C(N)=N/c1nc(CSc2ccc(C)cc2)cc(=O)[nH]1 | inactive: 15%
CC/C(=N\NC(=O)c1ccc(-c2ccccc2)cc1)C12CC3CC(CC(C3)C1)C2 | inactive: 0.45%
O=C(COC(=O)CCSc1ccccc1)Nc1ccc(F)cc1Cl | inconclusive: -32.1%
O=c1[nH]c(/C(Cl)=C/c2c(F)cccc2Cl)nc2cc(Cl)ccc12 | inactive: 43.7%
CC1NC(=O)N(C)C2NC(=O)N(C)C(c3ccccc3)C12 (configuration not stated) | inactive: 9.52%
CNC(=S)N1CCc2ccccc2C1 | inconclusive: -38.5%
CCCS(=O)(=O)N1CCN(Cc2ccccc2OCC)CC1 | active: -85.2%
CCC(Cc1ccccc1)NC(=O)CN1C(=O)CSc2ncccc21 (configuration not stated) | inconclusive: -35.6%
O=C1Nc2ccc(Br)cc2C1(O)Cc1ccccn1 (configuration not stated) | active: -114%
CCCC(=O)Nc1nc2nc(C)cc(=O)n2[nH]1 | inconclusive: -57.5%

SMILES | activity change (PNC), negative = inhibition
c1ccc2c(c1)nc(N1CCOCC1)c1nncn12 | inconclusive: -80%
CC(C)C(c1nnnn1Cc1ccc2c(c1)OCO2)N1CCN(C)CC1 (configuration not stated) | active: -100%
O=C(NCCN1CCc2ccccc2C1)C1CC(=O)N(C2CCCC2)C1 (configuration not stated) | inactive: 0.151%
OCc1nc2ccccc2n1CCCOc1ccc(Br)cc1 | inconclusive: -43.2%
CCOC(=O)N1CCN(c2c(NCCCN3CCCCCC3)c(=O)c2=O)CC1 | inactive: -16.3%
CCOC(=O)C(Sc1ncnc2c1sc1nc(N3CCOCC3)c3c(c12)CCCC3)c1ccccc1 (configuration not stated) | inactive: -5.96%
CCOc1cc(S(=O)(=O)N2CCCCC2)ccc1Cl | inconclusive: -35.6%
CCOc1ccc2c(c1)nc(SCC(=O)c1cccs1)n2C | inactive: 47.9%
COc1ccc(OC)c(C2=C[N+](=O)C(C)(C)C(C)(C)N2[O-])c1 | inconclusive: -47.1%
COc1ccc(C(=O)N2CCN(S(=O)(=O)c3ccc(C)cc3C)CC2)cc1OC | inconclusive: -52%
COc1ccc(OC)c(-n2nnnc2SCC(=O)NCCc2ccccc2)c1 | inconclusive: -71.7%
COc1ccc(CCNC(=O)C(=O)N2CCCCC2)cc1OC | inconclusive: -44.4%
CC(=O)c1c(COC(=O)c2cccnc2)nc2ccccc2[n+]1[O-] | inconclusive: -32.2%
CCOC(=O)CSC1=C(C#N)C(c2ccco2)C(C(=O)OCc2ccccc2)=C(C)N1 (configuration not stated) | inactive: -21.7%
CCN(C(=O)COc1ccc(C)nc1[N+](=O)[O-])C1CCS(=O)(=O)C1 (configuration not stated) | inconclusive: -37.5%
O=C1Nc2ccccc2C(O)(C(=O)NCc2ccc3c(c2)OCO3)N1c1ccc(Cl)c(Cl)c1 (configuration not stated) | inactive: 65.6%
Cc1ccc(Oc2ncccc2/C=N/O)cc1 | inconclusive: -51.1%
CCN(CC)C(=O)c1sc(NC(=O)c2ccc(OC)c([N+](=O)[O-])c2)c(C#N)c1C | inactive: 0.247%
CCOC(=O)c1cc(=O)cc(C(=O)OCC)o1 | inconclusive: -32.4%
O=C(OCC(=O)N1CCN(c2ccccc2)CC1)c1ccc2ncsc2c1 | inconclusive: -42.6%
CN(c1ccccc1C(=O)NCc1ccco1)S(C)(=O)=O | inconclusive: -62.7%
O=C1NC(=O)c2cc(NC(=O)C3CCCCC3)ccc21 | inconclusive: -49.1%
O=C(CSc1nnc(CNc2ccc(F)cc2)n1Cc1ccccc1)N1CCOCC1 | inactive: 40.9%

2 entries picked at random from the list so far:
SMILES | activity change (PNC), negative = inhibition
CCOC(=O)c1cc(=O)cc(C(=O)OCC)o1 | inconclusive: -32.4%
O=C1NC(=O)c2cc(NC(=O)C3CCCCC3)ccc21 | inconclusive: -49.1%
